Measurements reported in PubChem BioAssay AID686937 (Drosophila RNAi Screening Center, 2013).
Assay: 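Genes whose loss weakens secretory pathway function in fly cells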 (primary screen). Cell system: Drosophila S2 cells expressing secreted horseradish peroxidase. Knock-down reagent: long dsRNA against Drosophila genes. Time to read-out: about 5.5 days (5 days dsRNA, then 12 h reporter induction). Challenge: reporter expression induced after 5 days of dsRNA, read 12 h later; inducer not stated. Measurement: 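Chemiluminescent measurement of peroxidase in the medium 12 h after reporter induction, following 5 days of dsRNA, given as a z-score per plate; higher means more secretion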. Direction: z-score: higher = more reporter secreted into medium.
The screen tested about 23,000 reagents; shown is a random part of those that have a named target and a result. 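Reduced-secretion tags in replicate 1 do not always agree with the z-scores; no criterion for assigning the tags was given.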 The numbers tell different reagents against one gene apart. Not stated in the record: the amount of reagent.

With Sras (severas), what does the deposit list?
z-score, replicate 1: 0.36; z-score, replicate 2: 0.32

What is on record for CG32720?
z-score, replicate 1: 0.15; z-score, replicate 2: 0.56

With CG30440 #1, how do the results read?
z-score, replicate 1: -0.4

How did the screen score CG30440 #2?
z-score, replicate 1: 0.6; z-score, replicate 2: 0.36

For CG30440 #3, what does the deposit list?
z-score, replicate 1: 0.52; z-score, replicate 2: 0.41

For Got2 (Glutamate oxaloacetate transaminase 2), what does the deposit list?
z-score, replicate 1: 0.11; z-score, replicate 2: 0.34

Ordered by “z-score, replicate 1” (low to high): 2 of the entries above
CG30440 #1: z-score, replicate 1 = -0.4
CG30440 #2: z-score, replicate 1 = 0.6; z-score, replicate 2 = 0.36

Continued.
With SPARC (Secreted protein, acidic, cysteine-rich), what does the deposit list?
z-score, replicate 1: 0.36; z-score, replicate 2: 0.16

What did the screen give for CG4707?
z-score, replicate 1: 0.11; z-score, replicate 2: 0.18

What is on record for Pmvk (Phosphomevalonate kinase)?
z-score, replicate 1: 0.27; z-score, replicate 2: 0.34

With Lsp1beta (Larval serum protein 1 beta), what does the deposit list?
z-score, replicate 1: 0.32; z-score, replicate 2: 0.44

With Inx5 (Innexin 5), what does the deposit list?
z-score, replicate 1: 0.56; z-score, replicate 2: 0.43

For CG31922, what does the deposit list?
z-score, replicate 1: -0.07; z-score, replicate 2: 1.1

With koi (klaroid) #1, how do the results read?
z-score, replicate 1: 0.26; z-score, replicate 2: 0.36

With koi (klaroid) #2, how do the results read?
z-score, replicate 1: 0.33; z-score, replicate 2: 0.44

With CG8475, what was measured?
z-score, replicate 1: 0.06; z-score, replicate 2: 0.29

How did the screen score CG31019?
z-score, replicate 1: 0.08; z-score, replicate 2: 0.48
